Assay results taken from PubChem BioAssay AID493014 (National Center for Advancing Translational Sciences (NCATS), 2011).
Some of the results follow. The main result of the screen is listed elsewhere. These columns were measured beside it and carry no call. Compounds called inactive in the main read-out are mostly missing here. The note in brackets gives the kind of curve behind each potency; many fits are weak.

Assay: qHTS Assay to Find Inhibitors of Chronic Active B-Cell Receptor Signaling
Settings: ABC-DLBCL IkBa-CBG/CBR reporter, luminescence ratio (green luciferase fused to IkBa over red control in TMD8 lymphoma cells), 4 h
How it was run: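 TMD8 ABC-DLBCL cells carrying doxycycline-inducible green luciferase fused to IkappaBalpha plus unfused red luciferase were exposed to compounds (up to 46 uM) for 4 hrs at 37C. Activity came from the overlap-corrected green/red luminescence ratio.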

[1] = measured here: CBR red luminescence, cell number

Structure (SMILES)	AC50 [1]	AC50 (measured here: IkBa-CBG green luminescence)
COc1ccc(-c2cc(C)nc(SCc3cccc(C(=O)O)c3)n2)cc1	1.64 µM [falling, partial curve, poor fit]	–
O=C(Nc1ccc(CN2CCOCC2)cc1)c1ccc(-c2ccc(Cl)cc2Cl)o1	15.8 µM [falling, single point]	–
COc1ccc(CCN(C)C(=O)C(CCSC)NC(=O)c2ccco2)cc1OC (stereo not given)	25.9 µM [rising, single point]	–
O=C(CNCCc1ccc(Cl)cc1)Nc1ccc(C(=O)N2CCCCC2)cc1	17.8 µM [falling, partial curve, poor fit]	–
CC(O/N=C/c1ccccc1OC(F)F)C(=O)Nc1cccc(S(=O)(=O)N2CCOCC2)c1 (stereo not given)	18.4 µM [rising, partial curve, poor fit]	–
O=C(CC1SC(=NCc2ccccc2)NC1=O)Nc1ccccc1 (stereo not given)	20.6 µM [falling, single point]	–
CCCCN(CCCC)CC(O)CN(c1cc([N+](=O)[O-])ccc1OC)S(=O)(=O)c1ccccc1 (stereo not given)	29.1 µM [falling, single point]	–
CN(C)c1nc(C(=O)NN)nc(N(C)C)n1	0.58 µM [rising, partial curve, poor fit]	–
CC(C)c1c(C(=O)N/N=C/c2ccsc2)nnn1-c1nonc1N	12.6 µM [rising, partial curve]	–
CCCn1nnc(NC(=O)c2cc(Br)cc(Br)c2OC)n1	5.01 µM [rising, full curve, poor fit]	–
COc1cccc(NC(=O)CN(c2ccc(C)cc2)S(=O)(=O)c2c(C)nn(C)c2C)c1	0.562 µM [falling, full curve]	–
CCCCn1c(SCC(=O)Nc2cc(C(F)(F)F)ccc2Cl)nnc1C(CC)N(C)C (stereo not given)	23.1 µM [falling, single point]	–
CCOc1cc(Br)c(C(=O)O)cc1OC	2.91 µM [rising, single point]	–
S=c1nccc(-c2ccc3c(c2)CCO3)[nH]1	35.5 µM [rising, single point]	–
CC(C)CC(NC(=O)CCC(=O)OCC(=O)[C@@]1(O)CCC2[C@@H]3CCC4=CC(=O)C=C[C@]4(C)C3[C@@H](O)C[C@@]21C)C(=O)O (stereo not given in full)	35.5 µM [rising, single point]	–
CCC(=O)N(C)CCc1cc2c(c(OC)c1/C=N/Nc1ccc(C(=O)O)cc1)OCO2	7.94 µM [falling, partial curve]	–
Cc1cc(=O)[nH]c2c3ccccc3nn12	6.31 µM [falling, partial curve]	–
O=C(Nc1ccc(N2CCN(Cc3ccccc3)CC2)cc1)c1ccco1	35.5 µM [rising, single point]	–
Cc1c(C2(O)CCCCC2)[nH]c2cnccc12	8.2 µM [falling, partial curve, poor fit]	–
O=C(c1sc2ccccc2c1Cl)N1CCN(CCc2ccccn2)CC1	11.2 µM [falling, single point]	–
c1ccc(-c2cc(NCCN3CCCCC3)c3ccccc3n2)cc1	31.6 µM [falling, partial curve, poor fit]	–
Cc1ccc(C(=O)COC(=O)c2cccc(N3C(=O)c4c(C)nc5ccccc5c4C3=O)c2)cc1C	3.55 µM [falling, full curve, poor fit]	–

Structure (SMILES)	AC50 [1]	AC50 (measured here: IkBa-CBG green luminescence)
COc1cccc(C(=O)Nc2cc(Cl)c(O)c(Cl)c2)c1	2 µM [falling, full curve]	–
Cc1ccc(-n2c(-c3nn(C)cc3Cl)n[nH]c2=S)cc1	16.4 µM [rising, partial curve, poor fit]	–
COc1ccc(/C=c2\s/c(=C/C(=O)c3ccc(C)cc3)[nH]c2=O)c(OC)c1	29.1 µM [rising, single point]	–
Cc1ccccc1NC(=O)CSc1nc(N)c2c3c(sc2n1)CSC(C)(C)C3	18.4 µM [falling, single point]	–
COc1ccccc1OCCOC(=O)Nc1ccccc1	7.31 µM [falling, partial curve]	–
O=C(CCCc1ccccc1)Nc1ccccc1C(F)(F)F	5.62 µM [falling, partial curve, poor fit]	–
COc1ccccc1-n1cnc2cc(NCc3ccccc3O)ccc21	20 µM [falling, partial curve, poor fit]	–
CN(C)CC1CCCCC1OC(=O)/C=C/c1ccc(Cl)cc1Cl (stereo not given)	35.5 µM [falling, single point]	–
c1ccc2c3c([nH]c2c1)C(C1CCCCC1)N(Cc1ncc[nH]1)CC3 (stereo not given)	8.91 µM [falling, partial curve]	–
Cn1c2ccccc2c2cc(/C=N/NC(=O)c3cc(O)ccc3O)ccc21	3.55 µM [falling, full curve]	–
Cn1c(SCC(=O)N2CCCCCC2)nnc1-c1ccco1	20 µM [rising, partial curve, poor fit]	–
Cc1ccc(C(=O)NC(C(=O)Nc2ccccc2)c2ccccc2)cc1 (stereo not given)	35.5 µM [rising, single point]	–
CS(=O)(=O)c1nc(-c2cccs2)cc(C(F)(F)F)n1	10 µM [falling, partial curve]	–
CC(C)(C)c1ccc(S(=O)(=O)Nc2noc3ccccc23)cc1	14.1 µM [rising, partial curve, poor fit]	–
CCOC(=O)c1c(COC(=O)c2ccco2)nc2ccccc2[n+]1[O-]	1.03 µM [falling, full curve, poor fit]	–
O=C(N/N=C/c1c(Cl)[nH]c2ccccc12)c1ccc2c(c1)OCCO2	15.8 µM [falling, single point]	–
COc1cc(OC)cc(C(=O)N[C@H](C(=O)Nc2nnc(C3CC3)s2)C(C)C)c1	0.631 µM [rising, full curve, poor fit]	–
C=CCN(c1ccccc1)S(=O)(=O)c1cccc(C(=O)Nc2ncccc2O)c1	14.6 µM [falling, partial curve, poor fit]	–
NC(=O)CN1CCN(c2nc(-c3ccc(F)cc3)cs2)CC1	7.08 µM [rising, partial curve, poor fit]	–
COc1cc(/C=N/NC(=O)c2ccccc2O)ccc1OCC(=O)Nc1ccccc1	11.2 µM [falling, partial curve]	–
COc1ccc(/C=C/C(=O)OCc2csc(-c3ccccc3)n2)cc1OC	20.6 µM [falling, partial curve, poor fit]	–
CS(=O)(=O)c1ccc(-c2nnc(NC(=O)C3=COCCO3)o2)cc1	2.91 µM [falling, partial curve]	–

Ordered by length of the SMILES (smallest number first): three of the compounds above
Structure (SMILES)	AC50 [1]	AC50 (measured here: IkBa-CBG green luminescence)
CCCn1nnc(NC(=O)c2cc(Br)cc(Br)c2OC)n1	5.01 µM [rising, full curve, poor fit]	–
CS(=O)(=O)c1nc(-c2cccs2)cc(C(F)(F)F)n1	10 µM [falling, partial curve]	–
CCC(=O)N(C)CCc1cc2c(c(OC)c1/C=N/Nc1ccc(C(=O)O)cc1)OCO2	7.94 µM [falling, partial curve]	–

(further entries)

Structure (SMILES)	AC50 [1]	AC50 (measured here: IkBa-CBG green luminescence)
CCOc1ccc2c(c1)sc(N)[n+]2Cc1cc(C)cc2cccnc12	29.1 µM [rising, single point]	32.6 µM [falling, partial curve, poor fit]
CCOC(=O)CNC(=O)CSc1nc2cccnc2n1Cc1ccccc1	14.1 µM [falling, partial curve, poor fit]	–
O=C(CSc1nc(-c2ccccc2)c(-c2ccccc2)[nH]1)NCC1CCCO1 (stereo not given)	6.31 µM [falling, partial curve, poor fit]	–
CC(C)Cc1cc(C(=O)Nc2cc(Br)ccc2O)no1	2.91 µM [rising, partial curve]	–
COc1ccc(NC(=O)COC(=O)c2ccc3ccccc3n2)c(OC)c1	1.84 µM [rising, partial curve, poor fit]	–
O=C(Nc1cccs1)Nc1ccccc1Cl	29.1 µM [falling, single point]	–
Cc1nn(-c2ccccc2)c(N2CCCC2)c1/C=N/NC(=S)Nc1ccccc1F	18.4 µM [falling, single point]	–
O=C(/C=C/c1ccc(N2CCOCC2)cc1)c1ccccc1	35.5 µM [falling, single point]	–
CCS(=O)(=O)NCC(c1ccco1)N1CCN(c2ccc(OC)cc2)CC1 (stereo not given)	35.5 µM [rising, single point]	–
C/C(CC(=O)Nc1ccc(Cl)c(C(F)(F)F)c1)=N\NC(=O)c1ccccc1O	2.31 µM [falling, full curve]	–
COc1cc2c3c(c1OC)C1(C=CC(=O)C=C1)CC3N(C(C)=O)CC2 (stereo not given)	3.26 µM [rising, partial curve, poor fit]	–
Cc1cc(/C=C\c2ccc3cc(N(C)C)ccc3[n+]2C)c(C)n1-c1ccccc1	25.9 µM [falling, single point]	–
O=C(COc1ccc(Br)cc1Cl)N1CCN(c2ccccn2)CC1	12.6 µM [rising, partial curve, poor fit]	–
O=C(c1ccccc1)c1nnc(-c2ccncc2)o1	29.1 µM [falling, single point]	–
COc1ccc(C(=O)Nc2cc(S(=O)(=O)N3CCCC3)ccc2Cl)cc1	20.6 µM [falling, single point]	–
Cc1noc(C)c1CN1C(=O)c2ccccc2C1=O	12.6 µM [rising, single point]	–
CC1=CC(C)(C)N(C(=O)CN2C(=O)CCC2=O)c2ccccc21	10 µM [rising, partial curve, poor fit]	–
N=c1c2c(-c3ccccc3)c(-c3ccccc3)n(Cc3ccco3)c2ncn1Cc1ccco1	35.5 µM [falling, single point]	–
Cc1onc(-c2ccccc2)c1C(=O)NC(=S)NNC(=O)c1ccncc1	16.4 µM [falling, single point]	–
O=C(COc1ccccc1F)N/N=C1\CCCc2ccccc21	0.58 µM [rising, full curve, poor fit]	–
